In PubChem BioAssay AID493014 (National Center for Advancing Translational Sciences (NCATS), 2011) one finds AC50 data, which are given here for 30 compounds.

The list shows a part of the results. Further columns of the screen follow, without active or inactive calls. Compounds called inactive in the main read-out are mostly missing here. Potencies come from curve fits of mixed quality, noted in brackets.

The assay can be described thus: qHTS Assay to Find Inhibitors of Chronic Active B-Cell Receptor Signaling. As to conditions: ABC-DLBCL IkBa-CBG/CBR reporter, luminescence ratio (green luciferase fused to IkBa over red control in TMD8 lymphoma cells), 4 h. The source says:
NIH Molecular Libraries Probe Production Network [MLPCN] NIH Chemical Genomics Center [NCGC] MLPCN Grant: 1 R03 DA031086-01A1 PI Name: Dr. R. Eric Davis NCGC Assay Overview: Diffuse large B-cell lymphoma (DLBCL) is the most common category of non-Hodgkin lymphoma, with ~20,000 new cases per year in the United States. DLBCL should be regarded as a collection of different neoplasms. Microarray gene expression analysis has defined two principal types of DLBCL, named for their similarity to normal B cell stages or activation states: a germinal center B-cell (GCB) type, and an activated B-cell (ABC) type. In ABC-DLBCL, a constitutive high-level activity of the NF-kappaB family of transcription factors has been observed (1) and NF-kappaB target genes are more highly expressed in ABC primary tumors than in GCB tumors. Functional studies have shown a constitutive high-level activity of the IkappaB (inhibitor of kappa-B) kinase (IKK) complex. […] Further analysis of DLBCL primary tumors for NF-kappaB target gene expression imply that although CARD11 is required for constitutive IKK activity in all ABC-DLBCL lines, mutations in CARD11 may be the root cause of IKK activation only in lines or tumors with such mutations. In other words, CARD11 mutations may explain NF-kappaB activation in only 10% of ABC-DLBCL cases. […] This process has been termed 'chronic active BCR signaling' (CABS). The goal of this screen is to find small-molecule inhibitors of the CABS pathway found in ABC-DLBCL lines using a cell-based assay that measures IkappaBalpa stability, which has already been extensively validated in the OCI-Ly3 line (PubChem AID:445; REF: 4). […] The assay uses green (CBG68) and red (CBR) emitting beetle luciferases [Chroma-GloTM developed by Promega Corp.] where the green luciferase is fused to IkappaBalpha and the red luciferase is present in its native state. Both luciferase genes are stably present in the TMD8 human ABC DLBCL cell line, but their expression is under the control of tetracycline-inducible promoters. Following the addition of doxycycline to induce expression of the luciferases, the green luminescence in control cultures rises only slowly because the CBG fusion partner IkappaBalpha is targeted by IKK activity for rapid degradation. In contrast, green luminescence rises rapidly in the presence of proteasome inhibitors or IKK inhibitors. The rise in red luminescence of CBR is not affected by proteasome or IKK inhibitors, and serves as normalization for cell number and nonspecific effects. Compounds were screened as a concentration-titration series that ranged from 46 uM to 3 nM.
NCGC Assay Protocol Summary: Cells were seeded in 1536-well plates at 5000 cells/4uL in IMDM medium containing 0.5% FBS, w/o phenol red, 1% penicillin/streptomycin. Then, 23 nL of compounds or DMSO were delivered to each well using a pin tool. One uL 20ng/ml doxycycline was then dispensed into white solid 1536-well plates and the plates were incubated at 37C/5% C02 in a cell incubator for 4 hrs. Then 4 uL luminescent substrate mix (in-house prepared: 150 mM Tris-Cl, pH 7.6, 3 mM MgCl2, 1% Triton X-100, 5 mM DTT, 0.2 mM CoA, 0.15 mM ATP, 5 mM D-luciferin, final concentrations) was added to each well. The plate was incubated at r.t. for 10-15 min. The plates were measured on a ViewLux plate reader for green luminescence (540/20 nm filter) and red luminescence (618/8 nm filter). The green and red luminescent signals were corrected for red and green luminescence filter overlap using previously determined filter calibration constants (determined using the procedure outlined in the Promega Technical Manual; REF 4). The %Activity was determined from the ratio of corrected green/red luminescent values. MG132 were used as control. […] Red luminescent %Activity was normalized to the difference between red luminesence in basal cells (0%Activity) and zero luminescence (-100% Activity). […]

[1] abbreviates: measured here: CBR red luminescence, cell number.
The mark [2] stands for this setting: measured here: IkBa-CBG green luminescence.

Usually AC50 stands for the concentration at which the activity in the assay is half-maximal. Take `COc1ccc(-c2noc(-c3ccccc3-c3ccccc3)n2)cc1OC`: the concentration at half-maximal activity (AC50) under setting [1] was 20.6 µM [rising, single point].
Still for that read-out and setting: for `C/C(=N\Nc1nc(N)cc(Cl)n1)c1cccc([N+](=O)[O-])c1` the value was 0.251 µM [rising, full curve, poor fit]; for `O=C(N/N=C/c1ccccn1)c1cccc([N+](=O)[O-])c1`, 35.5 µM [rising, single point]; for `COc1cc(OC)cc(C(=O)OCC(=O)NC2CCCCCC2)c1`, 16.4 µM [rising, partial curve, poor fit].
On the same count and under the same terms, the same measure for `Cc1cc(Cl)ccc1OCC(=O)N1CCCN(C(=O)COc2ccc(Cl)cc2C)CC1`: 29.1 µM [falling, single point]; for `CC(=O)N1CCC2(CC1)NC(=O)N(c1ccccc1)N2`: 14.1 µM [rising, single point].
Take `O=C(Nc1cccc(NC(=O)c2ccc(Cl)cc2Cl)c1)c1cccnc1`: the AC50 under setting [1] was 10 µM [falling, partial curve].
Regarding `Cc1nc(-c2ccc(Cl)cc2)sc1C1(C)CC(c2ccc(OC(F)(F)F)cc2)=NO1` (centres undefined), under setting [1], the half-maximal activity concentration (AC50) is 7.08 µM [rising, partial curve, poor fit].
For `COc1ccc(/C(N)=N/OC(=O)C2CCCCC2)cc1`, the AC50 under setting [1] was 2 µM [rising, partial curve, poor fit].
Still for that read-out and setting: for `Cc1cccc(C(=O)Nc2ccccc2C(=O)OCC(=O)Nc2ccc(C#N)cc2)c1` the value was 1.3 µM [falling, full curve]; for `COc1ccc(-c2cn3ccccc3n2)cc1[N+](=O)[O-]`, 10.3 µM [rising, partial curve, poor fit].
`CCC(C)C(=O)Nc1ccc([N+](=O)[O-])cc1OC` (centres undefined): the half-maximal activity concentration (AC50) under setting [1] is 7.94 µM [rising, partial curve, poor fit].
For the compound `Nc1nc(SCC(=O)c2cccs2)n[nH]1`, under setting [1], the AC50 was 6.31 µM [falling, full curve, poor fit].
Take `Cc1ccc2c(=O)oc(N(C)C)nc2c1`: the half-maximal activity concentration (AC50) under setting [1] was 35.5 µM [falling, single point].
Consider `CCCSc1nsc(SCCC)c1C(N)=O`, for which, under setting [1], the half-maximal activity concentration (AC50) is 14.1 µM [rising, partial curve].
The same measure, in the same setting: for `Oc1ccc(/C=N/Nc2cc(N3CCCC3)nc(N3CCCC3)n2)cc1` the value was 35.5 µM [falling, single point]; for `COc1ccccc1OCCCCOc1ccccc1F`, 0.355 µM [rising, full curve, poor fit]; for `COc1ccc(C(=O)NC(=S)N2CCNC(=O)C2CC(=O)OC(C)C)cc1` (centres undefined), 5.01 µM [rising, full curve, poor fit].
In the case of `O=C(c1ccc(S(=O)(=O)Cc2ccccc2Cl)c([N+](=O)[O-])c1)N1CCN(c2ccccn2)CC1`, under setting [1], the concentration at half-maximal activity (AC50) was 11.2 µM [falling, single point].
For `FC(F)(F)c1cc(CCN2C(=S)NC[C@@H]2CC2CCCCC2)cc(C(F)(F)F)c1`, the AC50 by setting is: under setting [1], 5.62 µM [rising, single point]; under setting [2], 5.01 µM [falling, single point].
With `CC(=O)Nc1cccc(NC(=O)Cc2nc(-c3ccccc3)sc2-c2ccc(C)cc2)c1`, the AC50 under setting [1] is 2.91 µM [rising, partial curve].
The same measure, in the same setting: the same measure for `CNC(=O)Cn1nc(-c2ccc(Cl)cc2)c2ccccc2c1=O`: 2.51 µM [rising, partial curve].
Consider `COc1ccnc(CSC(N)=Nc2ccccc2C(F)(F)F)c1`, for which the half-maximal activity concentration (AC50) under setting [2] is 23.1 µM [falling, partial curve, poor fit].
For `COc1cc(OC)c(C(=O)NC2CCCCCC2)cc1OC`, the AC50 was 6.51 µM [falling, single point] under setting [1] and 6.51 µM [rising, partial curve, poor fit] under setting [2].
As for `COC(=O)c1c(-c2ccccc2)csc1NC(=O)c1ccco1`, the concentration at half-maximal activity (AC50) under setting [1] was 1.41 µM [rising, full curve, poor fit].
As to `Cc1csc(NC(=O)/C=C/c2ccc3c(c2)OCO3)n1`, the concentration at half-maximal activity (AC50) runs as follows: under setting [1], 13 µM [falling, partial curve]; under setting [2], 2.91 µM [rising, full curve, poor fit].
As for `CCCSc1nc(=O)n2cccc(C)c2n1`, the AC50 under setting [1] is 13 µM [rising, partial curve] and the AC50 under setting [2] is 20.6 µM [falling, partial curve].
For `C=CC(=O)N(CCC)C(c1ccccc1)c1ccccc1OC` (centres undefined), under setting [1], the half-maximal activity concentration (AC50) was 7.31 µM [falling, partial curve, poor fit].
Same read-out and setting: the same measure for `CCc1ccc(-c2csc(-c3c[nH]c4ccccc34)n2)cc1`: 2.91 µM [rising, partial curve, poor fit]; for `O=C(Nc1nnc(-c2ccco2)o1)c1ccc(Cl)s1`: 12.6 µM [falling, partial curve].
